Experimental findings from article PMC5294574, “Stoichiometry and structure of a lantibiotic maturation complex” (Scientific Reports, 2017) are described below.

The target in assay [1] is NisC (lantibiotic cyclase) (Lactococcus lactis) (UniProt Q03202). Kind of assay: SEC-SAXS; isolated NisB (200 μM) or NisC (470 μM), 200 μL on Superdex 200, 4 °C; 50 mM HEPES-NaOH, pH 7.5, 500 mM NaCl, 5% glycerol; molecular weight from POROD volume; both purified. In general terms: SEC sorts molecules by how far they enter the pores of the column.
The target is the same in assay [2]. Kind of assay: SEC-MALS; isolated NisB or NisC, 200 μL of a 20 μM solution; 50 mM HEPES-NaOH, pH 7.5, 500 mM NaCl; both purified.

No constants are given. Whether binding was seen depends on the method and setting.

B1: NisC (lantibiotic cyclase) (enzyme, UniProt Q03202 1-418)
chain: MRIMMNKKNIKRNVEKIIAQWDERTRKNKENFDFGELTLSTGLPGIILMLAELKNKDNSKIYQKKIDNYIEYIVSKLSTYGLLTGSLYSGAAGIALSILHLREDDEKYKNLLDSLNRYIEYFVREKIEGFNLENITPPDYDVIEGLSGILSYLLLINDEQYDDLKILIINFLSNLTKENNGLISLYIKSENQMSQSESEMYPLGCLNMGLAHGLAGVGCILAYAHIKGYSNEASLSALQKIIFIYEKFELERKKQFLWKDGLVADELKKEKVIREASFIRDAWCYGGPGISLLYLYGGLALDNDYFVDKAEKILESAMQRKLGIDSYMICHGYSGLIEICSLFKRLLNTKKFDSYMEEFNVNSEQILEEYGDESGTGFLEGISGCILVLSKFEYSINFTYWRQALLLFDDFLKGGKRK
Turning to B1, the binding entry in assay [1] is listed as “no binding (tested: 470 μM)”; in assay [2], “no binding (tested: 20 μM)”.
